Patent publication US20040028684A1, “Cancer diagnosis and assays for screening anti-cancer agents” (priority 2000, published 2004)
At least one structure is not confirmed: it was looked up by name or label, or the drawing left a doubt.

System: RMP1
Experiment: Rapamycin sensitive signaling on human RMP1: immunoblot of RMP in insulin-induced HEK293 cells
Type: cell-based
Details: serum-deprived HEK293 cells induced with 50 nM insulin, 20 nM rapamycin, anti-RMP immunoblot
Procedure: Human Embryonic kidney (HEK293) cells are grown in DMEM+10% FCS. Exponentially growing HEK 293 cells are deprived of serum overnight, and then induced with 50 nM insulin in the presence or absence of 20 nM rapamycin. Protein extracts were prepared from cells harvested at 0 h, 1 h, 2 h, 4 h and 8 h after insulin induction. The cell extracts were subjected to SDS-polyacrylamide gel electrophoresis and the resulting gels were analyzed by immuno-blotting using a rabbit polyclonal anti-human RMP antibody. Antibodies specific for RMP are easily prepared using standard laboratory practices. A secondary antibody specific for rabbit antibodies, labelled was used to visualize RMP on the immunoblot using routine procedures.
In the presence of insulin and amino acids (in the culture medium in this example), RMP is present as a slower migrating form, indicating a phosphorylated form. Under these conditions, the cells continue to synthesize […]. With the addition of rapamycin, RMP is present as a fast migrating form and blocks the synthesis of […]

CO[C@H]1C[C@@H]2CC[C@@H](C)[C@@](O)(O2)C(=O)C(=O)N2CCCC[C@H]2C(=O)O[C@H]([C@H](C)C[C@@H]2CC[C@@H](O)[C@H](OC)C2)CC(=O)[C@H](C)/C=C(\C)[C@@H](O)[C@@H](OC)C(=O)[C@H](C)C[C@H](C)/C=C/C=C/C=C/1C [rapamycin]
formation of slower migrating form of RMP (0-8 h): completely blocked
fast-migrating form of RMP (over the 8 h time course): maintained
